# Results are given in words; binding and its absence hold for the method and conditions named. Binding seen in cells or lysates may run through a third protein. Some entries that bind do so weakly or less than the wild type. Tags and fused reporters may be left off the sequences shown.
# T1: FLAG-ChREBP-α (carbohydrate responsive element binding protein, isoform alpha) (UniProt Q9NP71)
# T1 sequence: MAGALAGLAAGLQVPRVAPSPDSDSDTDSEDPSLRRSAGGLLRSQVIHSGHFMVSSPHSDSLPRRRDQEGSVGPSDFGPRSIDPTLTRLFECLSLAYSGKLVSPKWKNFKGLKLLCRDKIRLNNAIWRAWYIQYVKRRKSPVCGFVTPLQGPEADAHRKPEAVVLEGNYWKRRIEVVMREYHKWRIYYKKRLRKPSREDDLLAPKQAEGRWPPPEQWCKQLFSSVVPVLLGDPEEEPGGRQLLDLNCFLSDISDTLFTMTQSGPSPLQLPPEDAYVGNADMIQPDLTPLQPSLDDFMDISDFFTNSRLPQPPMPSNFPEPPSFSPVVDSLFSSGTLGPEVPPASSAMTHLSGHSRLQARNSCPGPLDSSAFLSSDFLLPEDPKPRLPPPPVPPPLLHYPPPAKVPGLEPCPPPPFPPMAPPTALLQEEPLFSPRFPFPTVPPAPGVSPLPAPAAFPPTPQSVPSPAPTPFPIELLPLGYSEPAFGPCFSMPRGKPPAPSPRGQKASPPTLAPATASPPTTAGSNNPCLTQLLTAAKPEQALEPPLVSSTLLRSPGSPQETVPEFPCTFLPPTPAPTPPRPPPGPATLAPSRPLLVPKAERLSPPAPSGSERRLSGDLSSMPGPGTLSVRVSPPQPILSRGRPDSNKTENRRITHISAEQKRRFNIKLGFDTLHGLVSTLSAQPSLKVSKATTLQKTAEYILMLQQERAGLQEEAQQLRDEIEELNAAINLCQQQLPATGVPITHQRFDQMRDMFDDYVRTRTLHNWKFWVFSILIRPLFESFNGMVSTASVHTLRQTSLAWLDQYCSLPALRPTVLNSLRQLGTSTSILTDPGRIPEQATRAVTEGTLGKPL
# Target: T1, FLAG-ChREBP-α (carbohydrate responsive element binding protein, isoform alpha)
# Assay: co-IP; FLAG-ChREBP-α and HA-HNF-4α co-transfected in 293T cells, with or without ectopic Mlx; also cells treated with 0, 5.6 or 25 mM glucose for 18 hours; lysis buffer 1 mM EDTA, 40 mM Tris-HCl pH 8, 100 mM NaCl, 0.5% NP-40, 1% Triton X-100; primary antibody at 4 °C overnight, protein A/G-agarose beads; western blot
binder,measurement,value
"HA-HNF-4α (hepatocyte nuclear factor 4 alpha) (protein, UniProt P41235 1-474) MRLSKTLVDMDMADYSAALDPAYTTLEFENVQVLTMGNDTSPSEGTNLNAPNSLGVSALCAICGDRATGKHYGASSCDGCKGFFRRSVRKNHMYSCRFSRQCVVDKDKRNQCRYCRLKKCFRAGMKKEAVQNERDRISTRRSSYEDSSLPSINALLQAEVLSRQITSPVSGINGDIRAKKIASIADVCESMKEQLLVLVEWAKYIPAFCELPLDDQVALLRAHAGEHLLLGATKRSMVFKDVLLLGNDYIVPRHCPELAEMSRVSIRILDELVLPFQELQIDDNEYAYLKAIIFFDPDAKGLSDPGKIKRLRSQVQVSLEDYINDRQYDSRGRFGELLLLLPTLQSITWQMIEQIQFIKLFGMAKIDNLLQEMLLGGSPSDAPHAHHPLHPHLMQEHMGTNVIVANTMPTHLSNGQMCEWPRPRGQAATPETPQPSPPGGSGSEPYKLLPGAVATIVKPLSAIPQPTITKQEVI",binding,binds

# Source: paper PMC4814918
